The record followed here is paper PMC11944387, “Cannabidiol-Based Thiosemicarbazones: A Preliminary Study Evaluating Their Anti-Tyrosinase Properties” (Molecules, 2025).

The data set has as its system mushroom TYR. Briefly: Fluorescence quenching assay of TYR. It is filed as binding, Agaricus bisporus. Conditions: static quenching, double-log equation; 310 K. On the procedure:
The fluorescence quenching spectra were recorded with an excitation wavelength (λex = 280 nm) and excitation and emission slit widths of 5 nm. A potassium phosphate buffer (80 μL, 50 mM, pH 6.8), 20 μL of tyrosinase (100 units/mL), and 2 μL of the tested compounds (10–100 μM) dissolved in DMSO were added to 96-well plates. After incubating at 37 °C for 20 min, the fluorescence spectrum was recorded at an emission range from 315 to 415 nm. Fluorescence quenching is described by the Stern–Volmer equation [69]: F0/F=1+Kqτ0[Q]=1+ksv[Q]
For the static quenching interaction, the binding affinity (Ka) and the number of binding sites (n) between the inhibitor and TYR were determined using the following calculations:(1) logF0−F/F=nlogQ+logka where F and F0 represent the fluorescence intensities of protein in the presence and absence of a quencher, respectively. [Q] is the quencher concentration. Ksv is the Stern–Volmer quenching constant, and kq is the rate constant of the bimolecular quenching process. τ0 is the average fluorescence lifetime of the fluorophores in the absence of the quencher, with a typical value of 10^−8 s for biological macromolecules.
In the case of `C=C(C)[C@@H]1CCC(C)=C[C@H]1c1c(O)cc(CCCCC)c(/C=N/NC(N)=S)c1O` [Compound 5, 3-thiosemicarbazone–CBD–aldehyde], the “n (number of binding sites)” value came to 1.05.

For `C=C(C)[C@@H]1CCC(C)=C[C@H]1c1c(O)cc(CCCCC)c(/C=N/NC(=S)NC)c1O` [Compound 6, 3-(4-methyl-3-thiosemicarbazone)–CBD–aldehyde], the “n (number of binding sites)” value came out at 1.08.

In the case of `C=C(C)[C@@H]1CCC(C)=C[C@H]1c1c(O)cc(CCCCC)c(/C=N/NC(=S)N(C)C)c1O` [Compound 7, 3-(4,4-dimethyl-3-thiosemicarbazone)–CBD–aldehyde], the “n (number of binding sites)” value worked out at 0.92.

For the molecule `C=C(C)[C@@H]1CCC(C)=C[C@H]1c1c(O)cc(CCCCC)c(/C=N/NC(=S)Nc2ccccc2)c1O` [Compound 8, 3-(4-phenyl-3-thiosemicarbazone)–CBD–aldehyde], the “n (number of binding sites)” value was determined as 1.19.

On to `C=C(C)[C@@H]1CCC(C)=C[C@H]1c1c(OC)cc(CCCCC)c(/C=N/NC(N)=S)c1OC` [Compound 9, 3-thiosemicarbazone–CBD–dimethylether], for which the “n (number of binding sites)” value is recorded as 1.01.
